Source: publication PMC8552679

Protein sequences, listed by entry. Tags and fused reporters are not part of them. Lines headed by an entry give the natural chain unless they say otherwise; changes in a name come on top.
UniProt A0A644F565: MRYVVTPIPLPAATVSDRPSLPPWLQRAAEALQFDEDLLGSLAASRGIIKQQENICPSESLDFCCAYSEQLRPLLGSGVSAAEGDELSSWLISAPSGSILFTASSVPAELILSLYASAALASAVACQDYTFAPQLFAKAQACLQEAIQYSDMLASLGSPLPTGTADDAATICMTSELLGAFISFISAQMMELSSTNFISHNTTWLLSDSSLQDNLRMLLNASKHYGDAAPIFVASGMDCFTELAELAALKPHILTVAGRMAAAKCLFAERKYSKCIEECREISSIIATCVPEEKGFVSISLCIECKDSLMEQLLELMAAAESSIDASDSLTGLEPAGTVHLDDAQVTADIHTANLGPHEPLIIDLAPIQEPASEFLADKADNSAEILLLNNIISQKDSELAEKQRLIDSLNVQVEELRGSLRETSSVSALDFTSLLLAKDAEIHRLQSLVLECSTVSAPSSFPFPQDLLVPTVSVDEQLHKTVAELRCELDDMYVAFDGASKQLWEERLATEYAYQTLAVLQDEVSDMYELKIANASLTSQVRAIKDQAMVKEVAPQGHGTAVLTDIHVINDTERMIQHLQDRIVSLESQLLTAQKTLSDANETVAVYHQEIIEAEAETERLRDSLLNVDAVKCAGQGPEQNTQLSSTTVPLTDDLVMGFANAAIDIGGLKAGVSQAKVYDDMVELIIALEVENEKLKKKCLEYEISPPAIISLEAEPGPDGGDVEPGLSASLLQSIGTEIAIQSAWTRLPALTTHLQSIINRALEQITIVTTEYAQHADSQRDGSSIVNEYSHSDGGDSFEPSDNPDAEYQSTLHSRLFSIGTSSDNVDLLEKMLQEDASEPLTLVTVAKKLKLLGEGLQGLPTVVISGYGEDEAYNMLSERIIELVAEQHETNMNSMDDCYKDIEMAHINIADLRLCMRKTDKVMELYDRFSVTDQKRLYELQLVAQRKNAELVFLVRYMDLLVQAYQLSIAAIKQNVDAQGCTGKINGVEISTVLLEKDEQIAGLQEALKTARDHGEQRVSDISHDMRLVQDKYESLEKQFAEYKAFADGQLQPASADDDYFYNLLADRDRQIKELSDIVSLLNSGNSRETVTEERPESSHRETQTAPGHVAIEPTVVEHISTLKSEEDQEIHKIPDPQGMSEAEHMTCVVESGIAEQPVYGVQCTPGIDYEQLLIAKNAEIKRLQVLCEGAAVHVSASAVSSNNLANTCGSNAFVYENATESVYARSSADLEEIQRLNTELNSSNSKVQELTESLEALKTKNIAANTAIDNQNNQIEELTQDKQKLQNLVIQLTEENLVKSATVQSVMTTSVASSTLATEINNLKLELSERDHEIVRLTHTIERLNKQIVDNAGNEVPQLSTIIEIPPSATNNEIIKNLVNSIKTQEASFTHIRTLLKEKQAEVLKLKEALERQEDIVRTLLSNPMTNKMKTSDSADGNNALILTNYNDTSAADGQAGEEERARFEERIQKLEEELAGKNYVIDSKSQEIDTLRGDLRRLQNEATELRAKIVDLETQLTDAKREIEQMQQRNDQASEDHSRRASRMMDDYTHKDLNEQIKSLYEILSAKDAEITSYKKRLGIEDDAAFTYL
UniProt A8B9U8: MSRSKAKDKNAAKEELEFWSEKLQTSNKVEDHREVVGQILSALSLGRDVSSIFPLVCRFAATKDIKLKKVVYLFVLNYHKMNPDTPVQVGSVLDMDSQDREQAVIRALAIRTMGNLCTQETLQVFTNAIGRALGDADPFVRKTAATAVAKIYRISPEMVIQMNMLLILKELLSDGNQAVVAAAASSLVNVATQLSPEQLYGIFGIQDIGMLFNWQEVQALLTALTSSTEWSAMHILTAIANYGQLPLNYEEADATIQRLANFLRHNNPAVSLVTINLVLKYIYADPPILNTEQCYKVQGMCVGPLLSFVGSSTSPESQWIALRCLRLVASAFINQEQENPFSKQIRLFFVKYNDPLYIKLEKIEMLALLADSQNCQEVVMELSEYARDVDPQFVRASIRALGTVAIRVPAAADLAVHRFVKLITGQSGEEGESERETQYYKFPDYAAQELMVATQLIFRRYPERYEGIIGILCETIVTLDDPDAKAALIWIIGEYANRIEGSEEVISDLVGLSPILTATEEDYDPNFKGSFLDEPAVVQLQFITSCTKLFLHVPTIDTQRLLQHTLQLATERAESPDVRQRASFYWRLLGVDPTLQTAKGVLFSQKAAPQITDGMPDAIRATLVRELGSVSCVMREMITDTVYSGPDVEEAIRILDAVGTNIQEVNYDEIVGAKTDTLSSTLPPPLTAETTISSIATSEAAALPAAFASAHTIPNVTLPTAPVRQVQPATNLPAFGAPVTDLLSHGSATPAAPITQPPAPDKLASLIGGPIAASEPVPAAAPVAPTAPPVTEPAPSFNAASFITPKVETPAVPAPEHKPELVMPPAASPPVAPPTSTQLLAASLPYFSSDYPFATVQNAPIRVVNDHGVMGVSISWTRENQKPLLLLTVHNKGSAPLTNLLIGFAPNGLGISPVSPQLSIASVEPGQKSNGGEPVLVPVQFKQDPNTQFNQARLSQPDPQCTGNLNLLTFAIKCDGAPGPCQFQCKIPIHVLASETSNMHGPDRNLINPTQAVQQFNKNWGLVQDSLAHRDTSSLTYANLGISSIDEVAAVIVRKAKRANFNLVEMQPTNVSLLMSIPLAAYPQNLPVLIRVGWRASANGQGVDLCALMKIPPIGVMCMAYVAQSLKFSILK
UniProt Q4VPP2: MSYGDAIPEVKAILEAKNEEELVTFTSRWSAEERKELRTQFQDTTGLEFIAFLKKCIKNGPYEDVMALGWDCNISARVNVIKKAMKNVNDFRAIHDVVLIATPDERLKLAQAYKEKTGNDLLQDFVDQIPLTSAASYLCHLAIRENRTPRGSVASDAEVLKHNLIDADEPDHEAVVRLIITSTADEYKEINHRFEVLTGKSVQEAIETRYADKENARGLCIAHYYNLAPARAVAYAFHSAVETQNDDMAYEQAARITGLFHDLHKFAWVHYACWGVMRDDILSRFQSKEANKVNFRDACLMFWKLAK
UniProt A8BZB0: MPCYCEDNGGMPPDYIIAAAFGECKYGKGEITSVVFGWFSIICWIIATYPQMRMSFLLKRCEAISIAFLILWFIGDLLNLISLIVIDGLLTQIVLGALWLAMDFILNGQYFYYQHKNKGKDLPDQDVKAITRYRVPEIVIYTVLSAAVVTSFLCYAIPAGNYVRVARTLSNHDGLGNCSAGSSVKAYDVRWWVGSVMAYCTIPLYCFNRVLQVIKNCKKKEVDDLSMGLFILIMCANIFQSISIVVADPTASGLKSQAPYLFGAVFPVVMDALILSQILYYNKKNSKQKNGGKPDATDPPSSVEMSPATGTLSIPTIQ
UniProt A8BAG8: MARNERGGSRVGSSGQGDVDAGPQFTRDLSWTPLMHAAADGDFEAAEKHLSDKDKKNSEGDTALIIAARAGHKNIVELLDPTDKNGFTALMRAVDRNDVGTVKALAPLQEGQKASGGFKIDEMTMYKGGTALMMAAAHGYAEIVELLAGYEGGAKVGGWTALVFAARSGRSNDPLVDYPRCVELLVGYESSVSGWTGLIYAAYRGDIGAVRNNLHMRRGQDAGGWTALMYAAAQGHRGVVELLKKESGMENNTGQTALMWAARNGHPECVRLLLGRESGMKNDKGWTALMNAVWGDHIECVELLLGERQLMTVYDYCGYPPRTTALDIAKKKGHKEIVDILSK
UniProt A8BXV9: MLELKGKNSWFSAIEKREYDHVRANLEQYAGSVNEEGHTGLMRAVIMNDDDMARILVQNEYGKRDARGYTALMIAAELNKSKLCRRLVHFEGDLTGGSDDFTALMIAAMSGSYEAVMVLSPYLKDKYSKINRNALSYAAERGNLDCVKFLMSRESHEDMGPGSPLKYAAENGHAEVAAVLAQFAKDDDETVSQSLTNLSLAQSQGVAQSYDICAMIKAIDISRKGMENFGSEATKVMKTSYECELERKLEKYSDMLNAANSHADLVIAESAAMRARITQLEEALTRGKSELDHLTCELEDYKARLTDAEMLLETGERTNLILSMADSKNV
UniProt A8BL61: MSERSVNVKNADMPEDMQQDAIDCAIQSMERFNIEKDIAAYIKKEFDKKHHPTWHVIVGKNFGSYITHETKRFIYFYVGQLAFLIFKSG
UniProt A8BGY8: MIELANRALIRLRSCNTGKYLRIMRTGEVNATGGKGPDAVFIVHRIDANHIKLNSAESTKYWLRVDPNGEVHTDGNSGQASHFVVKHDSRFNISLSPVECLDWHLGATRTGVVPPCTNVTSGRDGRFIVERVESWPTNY
UniProt E2RTT5: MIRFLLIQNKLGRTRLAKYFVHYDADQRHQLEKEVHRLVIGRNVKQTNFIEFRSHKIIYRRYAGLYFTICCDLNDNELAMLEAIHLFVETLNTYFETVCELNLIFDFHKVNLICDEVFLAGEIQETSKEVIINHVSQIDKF
UniProt A8B440: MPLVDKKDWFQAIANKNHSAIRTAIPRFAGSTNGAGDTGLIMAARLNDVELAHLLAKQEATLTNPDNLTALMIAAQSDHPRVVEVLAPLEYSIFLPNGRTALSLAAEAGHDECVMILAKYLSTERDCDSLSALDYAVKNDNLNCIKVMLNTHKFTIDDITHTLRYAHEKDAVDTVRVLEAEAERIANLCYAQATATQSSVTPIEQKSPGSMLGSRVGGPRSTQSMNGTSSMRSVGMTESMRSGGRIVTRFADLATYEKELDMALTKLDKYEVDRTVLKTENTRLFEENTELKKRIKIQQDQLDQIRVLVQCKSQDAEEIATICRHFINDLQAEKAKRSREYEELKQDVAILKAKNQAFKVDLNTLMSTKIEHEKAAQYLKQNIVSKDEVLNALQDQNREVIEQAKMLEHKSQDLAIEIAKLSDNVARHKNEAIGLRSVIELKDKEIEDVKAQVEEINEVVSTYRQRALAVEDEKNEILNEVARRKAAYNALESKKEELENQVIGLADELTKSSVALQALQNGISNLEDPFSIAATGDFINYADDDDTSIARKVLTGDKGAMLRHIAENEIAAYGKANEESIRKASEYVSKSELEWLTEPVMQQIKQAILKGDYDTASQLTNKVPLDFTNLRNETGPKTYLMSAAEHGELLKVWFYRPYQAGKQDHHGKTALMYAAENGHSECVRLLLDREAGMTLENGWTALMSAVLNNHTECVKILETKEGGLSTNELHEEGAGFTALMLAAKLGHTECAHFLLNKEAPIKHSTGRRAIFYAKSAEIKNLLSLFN
UniProt E2RU45: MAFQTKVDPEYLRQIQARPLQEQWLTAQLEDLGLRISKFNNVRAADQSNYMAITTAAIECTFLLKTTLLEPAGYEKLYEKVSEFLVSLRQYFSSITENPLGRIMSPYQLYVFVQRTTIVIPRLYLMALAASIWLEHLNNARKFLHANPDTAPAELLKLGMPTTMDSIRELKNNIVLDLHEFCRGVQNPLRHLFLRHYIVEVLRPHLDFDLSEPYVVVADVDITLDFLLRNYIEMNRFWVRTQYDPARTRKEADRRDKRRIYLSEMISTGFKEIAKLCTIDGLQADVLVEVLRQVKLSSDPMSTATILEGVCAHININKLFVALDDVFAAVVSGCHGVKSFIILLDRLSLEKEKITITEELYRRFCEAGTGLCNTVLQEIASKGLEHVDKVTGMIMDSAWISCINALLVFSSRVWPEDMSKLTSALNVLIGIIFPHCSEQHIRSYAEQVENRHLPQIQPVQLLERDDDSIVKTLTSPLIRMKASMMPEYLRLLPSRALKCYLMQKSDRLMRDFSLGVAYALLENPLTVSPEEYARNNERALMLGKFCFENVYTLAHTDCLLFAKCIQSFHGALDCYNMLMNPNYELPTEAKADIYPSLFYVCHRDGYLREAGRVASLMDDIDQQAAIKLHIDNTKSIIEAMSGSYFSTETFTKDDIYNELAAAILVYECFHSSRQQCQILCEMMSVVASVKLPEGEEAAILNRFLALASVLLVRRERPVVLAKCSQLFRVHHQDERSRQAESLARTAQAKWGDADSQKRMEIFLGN
UniProt E2RTN7: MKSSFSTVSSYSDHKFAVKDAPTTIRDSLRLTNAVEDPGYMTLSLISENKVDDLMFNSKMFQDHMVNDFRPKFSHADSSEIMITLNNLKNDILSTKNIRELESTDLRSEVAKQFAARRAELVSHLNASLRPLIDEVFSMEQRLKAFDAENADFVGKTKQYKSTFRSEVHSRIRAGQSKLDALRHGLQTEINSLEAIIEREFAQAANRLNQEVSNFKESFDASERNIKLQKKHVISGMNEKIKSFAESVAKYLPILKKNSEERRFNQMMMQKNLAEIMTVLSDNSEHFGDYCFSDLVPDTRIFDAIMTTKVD
UniProt A8BDA9: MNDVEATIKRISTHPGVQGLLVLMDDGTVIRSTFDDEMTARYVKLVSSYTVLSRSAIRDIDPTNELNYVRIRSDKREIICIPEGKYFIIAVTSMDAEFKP
UniProt A8BCC2: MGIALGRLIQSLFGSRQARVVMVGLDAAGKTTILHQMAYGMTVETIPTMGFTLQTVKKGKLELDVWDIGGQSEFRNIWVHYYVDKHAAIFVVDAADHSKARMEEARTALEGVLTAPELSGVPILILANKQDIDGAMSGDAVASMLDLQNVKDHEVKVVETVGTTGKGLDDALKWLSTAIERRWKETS

Tests used:
[1] = target: Giardia lamblia actin (GlActin) (Giardia lamblia (endogenous in WB clone 6 trophozoites)) (UniProt P51775); assay: affinity purification with mass spectrometry; wild-type Giardia trophozoites lysed in G-buffer then DSP, in F-buffer then DSP, or treated with 1 mM DSP before lysis in F-buffer; anti-GlActin antibody overnight at 4°C, protein A agarose, washes with 150 mM NaCl added, glycine pH 2.5 elution, SDS-PAGE, LC-MS/MS; three replicates
[2] = target: T1, Giardia lamblia actin (GlActin) (Giardia lamblia (endogenous in WB clone 6 trophozoites)), P51775; assay: as above; conditions: remark: other sources report otherwise
T1 chain: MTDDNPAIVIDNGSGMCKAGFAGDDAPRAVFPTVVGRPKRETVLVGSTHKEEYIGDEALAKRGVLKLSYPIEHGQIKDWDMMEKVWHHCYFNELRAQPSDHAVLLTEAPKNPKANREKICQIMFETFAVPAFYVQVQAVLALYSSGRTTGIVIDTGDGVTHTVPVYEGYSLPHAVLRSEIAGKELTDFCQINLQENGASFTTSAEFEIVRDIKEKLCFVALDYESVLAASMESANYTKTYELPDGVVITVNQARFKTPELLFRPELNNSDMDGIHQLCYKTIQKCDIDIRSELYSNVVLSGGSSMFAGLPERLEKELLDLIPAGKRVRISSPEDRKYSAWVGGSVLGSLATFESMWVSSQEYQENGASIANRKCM

- binding [1]: binds
Molecule: GL50803_103855 (VPS29) (from UniProt A0A644F1B7)

Molecule: GL50803_10038 (alpha-18 giardin) (from UniProt E2RU06)
- binding [1]: binds

Molecule: GL50803_15591 (coiled-coil protein) (from UniProt A0A644F565)
- binding [1]: binds

- binding [1]: binds
Molecule: GL50803_4463 (dynein light chain) (from UniProt A8BYC9)

- binding [1]: binds
Molecule: GL50803_21423 (beta adaptin) (from UniProt A8B9U8)

Molecule: GL50803_17153 (alpha-11 giardin) (from UniProt Q4VPP2)
- binding [1]: binds

Molecule: GL50803_8044 (7 transmembrane domains) (from UniProt A8BZB0)
- binding [1]: binds

- binding [1]: binds
Molecule: GL50803_4259 (clathrin light chain) (from UniProt A8BHA7)

Molecule: GL50803_102813 (ankyrin repeat protein) (from UniProt A8BAG8)
- binding [1]: binds

Molecule: GL50803_9030 (ankyrin repeat) (from UniProt A8BXV9)
- binding [1]: binds

Molecule: GL50803_4383 (ankyrin repeat protein) (from UniProt A8BPT7)
- binding [1]: binds

- binding [1]: binds
Molecule: GL50803_9848 (dynein light chain) (from UniProt A8BL61)

Molecule: GL50803_24451 (FGF domain) (from UniProt A8BGY8)
- binding [1]: binds

Molecule: GL50803_33685 (armadillo repeat) (from UniProt A8BMP5)
- binding [1]: binds

- binding [1]: binds
Molecule: GL50803_5328 (sigma adaptin, AP-2 complex) (from UniProt E2RTT5)

Molecule: GL50803_27925 (ankyrin repeat) (from UniProt A8B440)
- binding [1]: binds

- binding [1]: binds
Molecule: GL50803_23833 (VPS35) (from UniProt E2RU45)

Molecule: GL50803_113622 (ankyrin repeat) (from UniProt A8BKY7)
- binding [1]: binds

Molecule: GL50803_17230 (gamma-giardin) (from UniProt E2RTN7)
- binding [1]: binds

- binding [1]: binds
Molecule: GL50803_15124 (dynein light chain) (from UniProt A8BDA9)

- binding [1]: binds
Molecule: GL50803_13930 (Arf3) (from UniProt A8BCC2)

- binding [1]: binds
Molecule: GL50803_10429 (Wos2 protein) (from UniProt A8BM82)

- binding [2]: binds
B1: 14-3-3, E2RU97 1-248 (protein)
chain: MAEAFTREDYVFMAQLNENAERYDEMVETMRKISGMEGELSDKERNLLSVAYKNVIGPRRAAWRIVSSIEAKEKGRQKPNAKRIEQIRVYRQKIEKELSDICNDILKLLQEQFVPRSTNADAKVFYYKMQGDYYRYLAEYSSGEDKEKIAGSALNAYNSAFEISQQLPPTHPIRLGLALNFSVFYYEILASPDRACELARKAFDAAITDLDKLTEESYKDSTLIMQLLRDNLNLWVTDSAGDDNAEEK

Results are given in words; binding and its absence hold for the method and conditions named. Binding seen in cells or lysates may run through a third protein. A yes stands for co-enrichment or nearness to the bait. Other partners may have been found. Each block holds one molecule with its values, some of them ahead of it.
